# Taken from: PubChem BioAssay AID652243 (Drosophila RNAi Screening Center, 2013)
# Purpose: 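Fly genes required for human androgen receptor driven transcription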 (primary screen)
# System: Drosophila S2R+ cells
# Reagent: long dsRNA against Drosophila genes
# Timing: 72 h (48 h, then 24 h hormone)
# Conditions: synthetic androgen R1881 at 10 nM for 24 h
# Measured: 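Firefly light from an androgen-responsive reporter and Renilla control light per well, raw and unnormalised, for each of two replicates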
# Scale: firefly reporter light: higher = more light from androgen-responsive reporter; Renilla control light: higher = more constitutive control signal (cell number, transfection)
# Rule for the call: 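Across duplicate plates, a knock-down whose log firefly/Renilla ratio shifted a set fold down or up from the GFP/LacZ control mean was a hit; the downward cut appears as both 1.5 and 3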
# Calls: active = hit: reporter lowered or raised; inactive = no hit
# The screen tested about 24,000 reagents; below is a random part of those with a known target gene and a result. Over the whole deposit, 246 (1%) are marked active. 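Plates not normalised; calls are printed but the firefly/Renilla ratio behind them is not deposited; fold cut for lowering reported inconsistently.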 Raw values are not corrected between plates. Reagents against one gene are numbered here. Names joined by + are all predicted targets of the reagent. The record does not give: the amount of reagent.
gene,reagent no.,"firefly reporter light, replicate 1","firefly reporter light, replicate 2","Renilla control light, replicate 1","Renilla control light, replicate 2",outcome
phr,1,5.49e5,7.72e5,1.83e6,1.43e6,inactive
Lgr4,1,9.70e5,6.84e5,2.28e6,1.08e6,inactive
Lgr4,2,6.06e5,5.54e5,4.05e6,4.26e6,inactive
Lgr4,3,8.21e5,8.60e5,1.35e6,1.29e6,inactive
CG5776,1,9.59e5,8.34e5,1.54e6,1.95e6,inactive
CG5245,1,80160,60212,9.59e5,7.45e5,inactive
CG5245,2,5.79e5,4.32e5,1.14e6,1.14e6,inactive
CG13185,1,7.24e5,1.37e6,1.02e6,2.05e6,inactive
spel1,1,1.68e5,1.89e5,1.78e6,1.81e6,inactive
spel1,2,3.43e5,4.10e5,8.10e5,8.10e5,inactive
Sugb,1,7.63e5,1.35e6,7.36e5,1.33e6,inactive
tant,1,53134,54113,7.40e5,1.19e6,inactive
betaTub60D,1,3.19e5,3.05e5,2.15e6,2.14e6,inactive
betaTub60D,2,5.25e5,2.75e5,1.39e6,1.14e6,inactive
betaTub60D,3,7.14e5,6.28e5,5.07e5,6.19e5,inactive
betaTub60D,4,3.80e5,3.38e5,1.02e6,9.09e5,inactive
CG9902,1,4.25e5,3.22e5,2.32e6,1.85e6,inactive
CG9902,2,1.08e6,1.12e6,9.31e5,1.17e6,inactive
Ugt37A1,1,1.60e5,1.61e5,1.12e6,1.58e6,inactive
CG30270,1,7.21e5,9.71e5,1.32e6,2.06e6,inactive
whd,1,1.38e6,8.65e5,1.87e6,1.38e6,inactive
CG30284,1,4.10e5,5.14e5,1.84e6,2.54e6,inactive
pHCl-2,1,1.85e5,1.46e5,2.58e6,2.66e6,inactive
CG9444,1,93326,95878,1.13e6,1.34e6,inactive
CG10527,1,7.56e5,3.26e5,2.23e6,1.35e6,inactive
CG10527,2,2.93e5,2.75e5,6.01e5,6.97e5,inactive
LRR,1,2.52e5,2.59e5,1.89e6,1.31e6,inactive
LRR,2,8.84e5,1.16e6,8.09e5,8.36e5,inactive
Top3alpha,1,1.07e5,1.44e5,1.43e6,1.52e6,inactive
Ack-like,1,7.84e5,1.18e6,1.21e6,1.12e6,inactive
Ack-like,2,6.80e5,5.99e5,1.18e6,8.43e5,inactive
Ack-like,3,2.97e5,6.54e5,8.96e5,1.76e6,inactive
Ack-like,4,,,,,inactive
Ack-like,5,,,,,inactive
Chi,1,7.71e5,7.49e5,1.43e6,1.43e6,inactive
Chi,2,3.46e5,7.51e5,1.04e6,1.55e6,inactive
pns,1,43923,54325,6.73e5,1.08e6,inactive

Next part, starting with the last 4 of the part before.
gene,reagent no.,"firefly reporter light, replicate 1","firefly reporter light, replicate 2","Renilla control light, replicate 1","Renilla control light, replicate 2",outcome
Ack-like,5,,,,,inactive
Chi,1,7.71e5,7.49e5,1.43e6,1.43e6,inactive
Chi,2,3.46e5,7.51e5,1.04e6,1.55e6,inactive
pns,1,43923,54325,6.73e5,1.08e6,inactive
TwdlD,1,9.22e5,1.03e6,1.06e6,1.11e6,inactive
vis + achi,1,9.70e5,8.29e5,1.53e6,1.55e6,inactive
CG10418,1,2.37e5,2.35e5,2.92e6,2.87e6,inactive
alpha-Man-Ib,1,59928,78050,4.81e5,3.71e5,inactive
alpha-Man-Ib,2,2.82e5,2.74e5,7.85e5,7.07e5,inactive
Ets97D,1,1.88e5,1.71e5,2.61e6,2.60e6,inactive
Ets97D,2,3.73e5,4.34e5,5.15e5,6.31e5,inactive
lncRNA:CR32368,1,2.28e5,2.04e5,6.17e5,7.15e5,inactive
lncRNA:CR32368,2,5.74e5,6.56e5,9.46e5,1.08e6,inactive
inaE,1,6.87e5,6.99e5,3.34e6,3.83e6,inactive
inaE,2,99884,98720,4.56e5,5.47e5,inactive
inaE,3,5.84e5,8.14e5,8.30e5,1.40e6,inactive
inaE,4,5.19e5,5.54e5,9.67e5,5.54e5,inactive
Polr2L,1,2.48e5,2.83e5,1.57e6,1.57e6,inactive
CG1943,1,80967,68182,1.53e6,1.55e6,inactive
GstE1,1,56782,1.69e5,1.15e6,1.15e6,inactive
GstE1,2,5.84e5,3.89e5,5.04e5,4.30e5,inactive
CG14073,1,2.08e5,2.31e5,2.04e6,2.87e6,inactive
CG14073,2,3.21e5,4.63e5,7.50e5,7.59e5,inactive
yps,1,1.87e5,2.47e5,6.85e5,4.82e5,inactive
Alg7,1,5.57e5,6.13e5,1.92e6,2.02e6,inactive
Alg7,2,1.65e5,1.53e5,1.20e6,1.24e6,inactive
